The exact form of at least one protein or probe is not confirmed. At least one verdict rests on a figure or table, not on a statement of the authors.
Biological target: EcEndoV-FL (endonuclease V, wild type) (Escherichia coli) (UniProt P68739)
Assay: EMSA
Conditions: 40 mM Tris-OAc pH 8.5, 5 mM CaCl2 (or 2.5 mM EDTA), 5 mM DTT, 5% glycerol, 4 uM ssDNA/ssRNA, 4 C 30 min, 6% native PAGE at 4 C, ethidium bromide, recombinant protein, residues 1-223, single-stranded DNA
[1] = no Ca2+, 2.5 mM EDTA, comparable band intensities

Sequences of proteins named here, by UniProt entry; tags and fusion partners are left off. A change or cut given only in a name is not applied to a line headed by its entry.
UniProt P68739: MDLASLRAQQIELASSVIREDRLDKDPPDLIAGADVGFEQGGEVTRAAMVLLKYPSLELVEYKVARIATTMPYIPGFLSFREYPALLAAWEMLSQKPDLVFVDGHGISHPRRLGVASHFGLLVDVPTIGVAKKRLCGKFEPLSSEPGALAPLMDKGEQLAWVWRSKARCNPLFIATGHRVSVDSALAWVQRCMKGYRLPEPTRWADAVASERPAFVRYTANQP

TTCTCCCGCAGCTGC [ssDNA-A]
binding result (5 mM Ca2+, complexes I and II): binds | binding result [1]: binds

ACGATTTGCAACTATTCGAACTCCT [ssDNA-C]
binding result (5 mM Ca2+, complexes I and II): binds | binding result [1]: binds

GTGGTCCATATCCACGCTAG [ssDNA-B]
binding result (5 mM Ca2+, complexes I and II): binds | binding result [1]: binds

CCGGGATCAAGTCCACTCACTTAGATGCAC [ssDNA-D]
binding result (5 mM Ca2+, complexes I and II): binds | binding result [1]: binds
